Test results taken from article PMC12448893.
These are yes or no findings as the source states them, for the method shown. Binding seen in cells or lysates may run through a third protein. A yes stands for co-enrichment or nearness to the bait. Other partners may have been found.

Chains of the proteins cited; added tags and fusions are not shown. Lines headed by an entry give the natural chain unless they say otherwise; changes in a name come on top.
UniProt Q13547: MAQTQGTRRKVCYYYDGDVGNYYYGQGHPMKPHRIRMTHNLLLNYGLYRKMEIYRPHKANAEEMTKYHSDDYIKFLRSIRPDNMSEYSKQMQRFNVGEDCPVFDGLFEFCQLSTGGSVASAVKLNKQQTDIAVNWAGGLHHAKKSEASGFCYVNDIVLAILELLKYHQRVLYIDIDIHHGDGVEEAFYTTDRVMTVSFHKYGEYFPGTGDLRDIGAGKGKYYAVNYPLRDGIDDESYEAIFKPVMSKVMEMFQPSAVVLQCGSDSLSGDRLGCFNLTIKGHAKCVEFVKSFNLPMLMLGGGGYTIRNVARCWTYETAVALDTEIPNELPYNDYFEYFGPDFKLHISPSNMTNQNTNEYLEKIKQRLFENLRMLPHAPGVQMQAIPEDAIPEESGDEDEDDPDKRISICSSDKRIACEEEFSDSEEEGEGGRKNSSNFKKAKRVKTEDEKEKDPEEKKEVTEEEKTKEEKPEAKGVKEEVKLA

What was measured:
Test in all cases: affinity purification with mass spectrometry; Flag IP (anti-Flag on Protein G Dynabeads) of HDAC1-Flag WT, Y48E or E63R from extracts of Hdac1/2 DKO mouse ESCs 5 days after OHT; coIP buffer 250 mM NaCl, 20 mM Tris-HCl pH 7.5, 0.5% IGEPAL, 1 mM EDTA; 4°C overnight; LC-MS/MS; control DKO cells lacking a Flag epitope
[1] = target: HDAC1–Y48E (Flag), stably expressed in Hdac1/2 double knockout mouse ESCs (UniProt Q13547)
[2] = target: HDAC1-Flag (wild type), stably expressed in Hdac1/2 double knockout mouse ESCs (UniProt Q13547)
[3] = target: HDAC1–E63R (Flag), stably expressed in Hdac1/2 double knockout mouse ESCs (UniProt Q13547)

Measured: binding

B1: SIN3A (endogenous, mouse ESCs) (protein, UniProt Q60520 1-1274)
chain: MKRRLDDQESPVYAAQQRRIPGSTEAFSHQHRVLAPAPPVYEAVSETMQSATGIQYSVAPNYQVSAVPQSSGSHGPAIAAVHSSHHHPTAVQPHGGQVVQSHAHPAPPVAPVQGQQQFQRLKVEDALSYLDQVKLQFGSQPQVYNDFLDIMKEFKSQSIDTPGVISRVSQLFKGHPDLIMGFNTFLPPGYKIEVQTNDMVNVTTPGQVHQIPTHGIQPQPQPPPQHPSQPSSQSAPTPAQPAPQPTAAKVSKPSQLQAHTPASQQTPPLPPYASPRSPPVQPHTPVTISLGTAPSLQNNQPVEFNHAINYVNKIKNRFQGQPDIYKAFLEILHTYQKEQRNAKEAGGNYTPALTEQEVYAQVARLFKNQEDLLSEFGQFLPDANSSVLLSKTTAEKVDSVRNDHGGTVKKPQLNNKPQRPSQNGCQIRRHSGTGATPPVKKKPKLMSLKESSMADASKHGVGTESLFFDKVRKALRSAEAYENFLRCLVIFNQEVISRAELVQLVSPFLGKFPELFNWFKNFLGYKESVHLESFPKERATEGIAMEIDYASCKRLGSSYRALPKSYQQPKCTGRTPLCKEVLNDTWVSFPSWSEDSTFVSSKKTQYEEHIYRCEDERFELDVVLETNLATIRVLEAIQKKLSRLSAEEQAKFRLDNTLGGTSEVIHRKALQRIYADKAADIIDGLRKNPSIAVPIVLKRLKMKEEEWREAQRGFNKVWREQNEKYYLKSLDHQGINFKQNDTKVLRSKSLLNEIESIYDERQEQATEENAGVPVGPHLSLAYEDKQILEDAAALIIHHVKRQTGIQKEDKYKIKQIMHHFIPDLLFAQRGDLSDVEEEEEEEMDVDEATGAPKKHNGVGGSPPKSKLLFSNTAAQKLRGMDEVYNLFYVNNNWYIFMRLHQILCLRLLRICSQAERQIEEENREREWEREVLGIKRDKSDSPAIQLRLKEPMDVDVEDYYPAFLDMVRSLLDGNIDSSQYEDSLREMFTIHAYIAFTMDKLIQSIVRQLQHIVSDEVCVQVTDLYLAENNNGATGGQLNSQTSRSLLESAYQRKAEQLMSDENCFKLMFIQSQGQVQLTVELLDTEEENSDDPVEAERWSDYVERYMSSDTTSPELREHLAQKPVFLPRNLRRIRKCQRGREQQEKEGKEGNSKKTMENVESLDKLECRFKLNSYKMVYVIKSEDYMYRRTALLRAHQSHERVSKRLHQRFQAWVDKWTKEHVPREMAAETSKWLMGEGLEGLVPCTTTCDTETLHFVSINKYRVKYGTVFKAP
binds: [1] | [2] | [3]

B2: SIN3B (endogenous, mouse ESCs) (protein, UniProt Q62141 1-1098)
chain: MAHAGSGGSAGRGFGGSRWGRSGSGGHEKLPVHVEDALTYLDQVKIRFGSDPATYNGFLEIMKEFKSQSIDTPGVIRRVSQLFHEHPDLIVGFNAFLPLGYRIDIPKNGKLNIQSPLSSQDNSHSHGDCGEDFKQMSYKEDRGQVPLESDSVEFNNAISYVNKIKTRFLDHPEIYRSFLEILHTYQKEQLHTKGRPFRGMSEEEVFTEVANLFRGQEDLLSEFGQFLPEAKRSLFTGNGSCEMNSGQKNEEKSLEHNKKRSRPSLLRPVSAPAKKKMKLRGTKDLSIAAVGKYGTLQEFSFFDKVRRVLKSQEVYENFLRCIALFNQELVSGSELLQLVSPFLGKFPELFAQFKSFLGVKELSFAPPMSDRSGDGISREIDYASCKRIGSSYRALPKTYQQPKCSGRTAICKEVLNDTWVSFPSWSEDSTFVSSKKTPYEEQLHRCEDERFELDVVLETNLATIRVLESVQKKLSRMAPEDQEKLRLDDCLGGTSEVIQRRAIHRIYGDKAPEVIESLKRNPATAVPVVLKRLKAKEEEWREAQQGFNKIWREQYEKAYLKSLDHQAVNFKQNDTKALRSKSLLNEIESVYDEHQEQHSEGRSAPSSEPHLIFVYEDRQILEDAAALISYYVKRQPAIQKEDQGTIRQLLHRFLPSLFFSQQCPGTSDDSADERDRDRDSAEPERRRPTDEKPPADASPEPPKVLDDVYSLFFANNNWYFFLRLHQTLCARLLKIYRQAQKQLLEHRREQEREQLLCEGRREKAADPAMELRLKQPSEVELEEYYPAFLDMVRSLLEGSIDPTQYEDTLREMFTIHAYIGFTMDKLVQNIARQLHHLVSDDVCLKVVELYLNEQQRGAAGGNLSSRCVRAARETSYQWKAERCMADENCFKVMFLQRRGQVIMTIELLDTEEAQTEDPVEVQHLARYVEQYVGSEGASSSSTEGFLLKPVFLQRNLKKFRRWQCEQVRAMRGEAKSSWKRLMGVESACDVDCRFRLGTHKMVFIVNSEDYMYRRGTLCRAKQVQPLVLLRHHRHFEEWHGRWLEDNVTVAAAGLVQDWLMGEEEEDMVPCKTLCETAHVHGLPVTRYRVQYSRRPASP
binds: [1] | [2] | [3]
